Test results reported in publication PMC4729438.
No constants are given. Whether binding was seen depends on the method and setting. In cells and extracts the contact can be indirect. Some entries that bind do so weakly or less than the wild type. For some of these results: Where a sequence is shown, tags or fusion partners need not be part of it. Blank lines part the entries; values can stand above or below the substance they belong to.

Sequences of proteins named here, by UniProt entry; tags and fusion partners are left off. Residues count along the entry.
UniProt Q13242: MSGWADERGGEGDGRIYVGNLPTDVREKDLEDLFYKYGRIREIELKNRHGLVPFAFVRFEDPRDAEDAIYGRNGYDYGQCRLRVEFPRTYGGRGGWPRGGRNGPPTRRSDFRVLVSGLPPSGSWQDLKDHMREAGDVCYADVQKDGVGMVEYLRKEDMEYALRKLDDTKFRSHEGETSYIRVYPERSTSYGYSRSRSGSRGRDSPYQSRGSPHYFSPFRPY
UniProt Q07021, residues 74-282: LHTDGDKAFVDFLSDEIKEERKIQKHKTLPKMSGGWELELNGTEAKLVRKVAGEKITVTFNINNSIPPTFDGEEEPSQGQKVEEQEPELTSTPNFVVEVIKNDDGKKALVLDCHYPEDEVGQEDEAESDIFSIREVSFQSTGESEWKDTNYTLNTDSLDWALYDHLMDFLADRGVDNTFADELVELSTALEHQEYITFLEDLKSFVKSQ
UniProt P35637: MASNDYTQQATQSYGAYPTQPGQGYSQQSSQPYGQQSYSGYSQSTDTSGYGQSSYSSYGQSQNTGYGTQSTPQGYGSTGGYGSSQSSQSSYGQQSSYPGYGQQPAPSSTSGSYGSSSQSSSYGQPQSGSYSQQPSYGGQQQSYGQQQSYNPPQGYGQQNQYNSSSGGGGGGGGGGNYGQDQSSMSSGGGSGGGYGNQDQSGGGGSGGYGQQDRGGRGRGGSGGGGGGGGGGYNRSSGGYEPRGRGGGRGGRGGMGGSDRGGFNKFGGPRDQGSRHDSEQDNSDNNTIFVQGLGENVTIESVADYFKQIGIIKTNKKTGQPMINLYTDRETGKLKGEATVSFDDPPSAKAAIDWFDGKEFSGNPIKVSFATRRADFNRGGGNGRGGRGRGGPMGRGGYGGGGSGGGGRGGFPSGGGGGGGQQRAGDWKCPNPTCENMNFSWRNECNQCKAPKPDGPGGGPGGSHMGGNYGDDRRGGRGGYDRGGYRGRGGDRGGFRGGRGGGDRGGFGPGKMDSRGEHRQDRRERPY

Assays:
[1] = molecular target: short DUX4-V5 (DUX4 limited to the homeodomains) (human) (UniProt Q9UBX2); experiment: co-IP; HEK293 cells transfected with V5-tagged DUX4 constructs, alone or with Myc-DDK-tagged partners; lysate in 137 mM NaCl, 10 mM Tris-HCl pH 7.4, 1% NP40; IP with V5- or Myc-antibody agarose 16-20 h at 4 °C; western blot
[2] = molecular target: DUX4-V5 (full length) (human) (UniProt Q9UBX2); experiment: as above
GST-desmin (human) = GST-desmin (human) (UniProt P17661); experiment: pull-down; GST-desmin or GST on GSH-Sepharose 4B incubated with 35S-labeled in vitro transcription/translation products overnight at 4 °C; SDS-PAGE, autoradiography; only the target purified
[3] = molecular target: DUX4 expressed in transfected human myoblasts (pCIneo-DUX4 or a vector with the endogenous promoter) (human) (UniProt Q9UBX2); experiment: proximity ligation; in situ PLA (Duolink) on fixed human myoblasts, transfected with DUX4 or DUX4c vectors (LHCN-M2) or untransfected healthy or FSHD myoblasts; mouse and rabbit primary antibodies to the two proteins
[4] = molecular target: DUX4, endogenous in FSHD myoblasts (human (endogenous in FSHD myoblasts)) (UniProt Q9UBX2); experiment: as above
[5] = molecular target: T1, Myc-DKK-tagged-human LIM and cysteine-rich domains 1 (pCMV6.LMCD1) (human) (UniProt Q9NZU5); experiment: co-IP; HEK293 cells transfected with V5-tagged DUX4 constructs, alone or with Myc-DDK-tagged partners; lysate in 137 mM NaCl, 10 mM Tris-HCl pH 7.4, 1% NP40; IP with V5- or Myc-antibody agarose 16-20 h at 4 °C; western blot
T1 sequence: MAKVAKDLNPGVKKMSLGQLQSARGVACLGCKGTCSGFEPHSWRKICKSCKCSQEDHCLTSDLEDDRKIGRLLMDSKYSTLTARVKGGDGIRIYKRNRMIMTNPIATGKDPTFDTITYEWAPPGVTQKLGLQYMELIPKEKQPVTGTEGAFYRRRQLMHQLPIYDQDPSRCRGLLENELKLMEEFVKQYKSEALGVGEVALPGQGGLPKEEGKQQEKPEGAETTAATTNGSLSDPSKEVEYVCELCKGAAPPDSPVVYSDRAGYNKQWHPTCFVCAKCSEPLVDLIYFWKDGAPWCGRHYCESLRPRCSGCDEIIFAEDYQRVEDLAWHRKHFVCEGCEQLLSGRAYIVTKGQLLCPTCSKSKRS

[6] = molecular target: T2, Myc-DDK-tagged-human RNA-binding motif protein 3 (pCMV6.RBM3) (human) (UniProt P98179); experiment: as above
T2 sequence: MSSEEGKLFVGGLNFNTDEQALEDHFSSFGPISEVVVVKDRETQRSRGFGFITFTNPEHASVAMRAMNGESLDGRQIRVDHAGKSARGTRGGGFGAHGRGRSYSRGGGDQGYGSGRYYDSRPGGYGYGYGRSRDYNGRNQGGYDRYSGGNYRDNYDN

[7] = molecular target: Myc-DDK-tagged-human serine/arginine-rich splicing factor 9 (pCMV6.SRSF9) (human) (UniProt Q13242); experiment: as above
[8] = molecular target: DUX4c expressed in transfected human myoblasts (pCIneo-DUX4c or pENTR-DUX4c) (human) (UniProt Q6RFH8); experiment: proximity ligation; in situ PLA (Duolink) on fixed human myoblasts, transfected with DUX4 or DUX4c vectors (LHCN-M2) or untransfected healthy or FSHD myoblasts; mouse and rabbit primary antibodies to the two proteins

Substance: C1QBP, endogenous in human cells (from UniProt Q07021 74-282)
- binding [1]: binds
- binding [2]: binds

Substance: desmin, endogenous in human muscle cells (from UniProt P17661 1-470)
- binding [3]: binds
- binding [4]: binds

Substance: DUX4-V5 (full length) (from UniProt Q9UBX2 1-424)
- binding [5]: binds
- binding [6]: binds
- binding [7]: binds

Results, then the substance that gave them:

- binding (GST-desmin (human)): binds
Substance: radiolabeled DUX4 (in vitro transcription/translation) (from UniProt Q9UBX2 1-424)

- binding [3]: binds
- binding [8]: binds
Substance: FUS, endogenous in human muscle cells (from UniProt P35637 1-526)
